The values below come from the supplement of paper PMC10338343.

± gives the standard deviation. Only a part is listed here, and it is no random draw. Many entries were measured with a wide error.

This experiment relates to MILI (PIWIL2) piRISC loaded with Kctd7 piRNA (26 nt). Briefly: pre-steady-state target cleavage rate (min^-1); MIWI and MILI are mouse PIWI proteins and EfPiwi is from a freshwater sponge; tags in brackets are library labels; higher = faster piRNA-guided slicing of the target. The note with it: guide: Kctd7 piRNA 5'p-UGUUAAUCUCUCAGAGAAGGUGACAG; auxiliary factor: 500 nM mouse GTSF1. Put shortly: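 Cleave-'n-Seq used a transcribed, DNA-blocked target RNA library at 0.1 nM and active affinity-purified piRISC with one synthetic guide at 1 nM, with or without 500 nM GTSF1 partner protein, in HEPES–potassium acetate buffer at 33 °C for 0–8 or 0–960 min. Uncleaved targets were sequenced and normalised to depth and to weakly complementary targets, and three trials were pooled with k3 capped at 0.0001 min^-1. The pre-steady-state cleavage rate was estimated by a burst-and-steady-state fit.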
On to UAGUGACUCACCUUCUCUGAGAGAUUUUCA, for which the “pre-steady-state target cleavage rate” value was found to be 0.0728 ± 0.019. As for UAGUGACAGUGGUUCUCUGACUCAUUAACA, the figure is 0.000213 ± 0.018; as for UAGUGUGUCAGGUUCUCUGAGAGAUAUUGA, 0.000906 ± 0.0081; as for UAGUGACAGUGCUACUCAGAGAGAUUAACA, 0.00115 ± 0.0049. As for UAGUGAGUCACCUUCUCUCUCAGAUUAACA, the figure is 0.00261 ± 0.005; as for UAGUCUGUCACCUUCUCUCUCAGAUUAACA, 0.00263 ± 0.0043. As for UAGUGACAGUGCUUCUCUCAGAGAUAAACA, the figure is 0.00143 ± 0.0057; as for UAGUGACUCACCUACUCUGAGAGAUUUUGA, 0.00259 ± 0.0046; as for UAGUGUGCACCUUCUCUGAGAGAUUAACA, 0.196 ± 0.024. As for UAGUGACAGUCCUUCUCUGACAGAUUAUCA, the “pre-steady-state target cleavage rate” value came to 0.000271 ± 0.017. Under UAGUGACAGUCCUUCAGUGAGAGAUUAAGA stands 0.00278 ± 0.0043. Under UAGUGACAGUCCAUCUCUGAGAGAUAAACA stands 0.00193 ± 0.0032; under UAGUGACAGUGGAAGUCUGAGAGUUUAAGA, 0.0001 ± 0.053.

As to UAGUGACAGUGGAAGAGAGAGACAUUAACA, the “pre-steady-state target cleavage rate” value was found to be 0.000118 ± 0.057. With UAGUGACAGACCUUCUCUGAGUAGAUUAACA, the “pre-steady-state target cleavage rate” value was 0.005 ± 0.0051. Under UAGUGACAGUGGUUCUACUGAGAGAUUAACA stands 0.000258 ± 0.01.

Consider UAGUGACAGUGGAAGUCUGAGAGUUAAACA, for which the “pre-steady-state target cleavage rate” value was less than 0.0001. Under UAGUGACAGUCCUUCUCUGAGAGAUUUUGA stands 0.000441 ± 0.013; under UAGUGAGUCACCAACUCUGAGAGAUAUUGA, 0.001 ± 0.0097.

UAGUGACAGUGCAACUCUGAGAGAUUAACA: the “pre-steady-state target cleavage rate” value was found to be 0.00194 ± 0.0039. As for UAGUGACAGUCCUUCUCUGACUCAUUAAGA, the figure is 0.000139 ± 0.018; as for UAGUGACACACCAACUCUGAGAGAUUAUGA, 0.00174 ± 0.0049. Under UAGUGACAGUGGAAGAGACUCAGUUUAACA stands 0.000531 ± 0.011; under UAGUGACAGUGGAAGACUGAGAGAUAUAACA, 0.000263 ± 0.019; under UAGUGACAGACCUUCUCUGAGUGUUUAACA, 0.000651 ± 0.014. Turning to UAGUGAGUCUGGUUCUCUGAGAGAUUAUGA, the “pre-steady-state target cleavage rate” value is 0.000802 ± 0.0099.

Consider UAGUGACACACCUUCUCUGACUCAUUAUGA, for which the “pre-steady-state target cleavage rate” value stood at 0.000143 ± 0.025.

As to UAGUGACUCACCUUCUGACAGAGAUAUUGA, the “pre-steady-state target cleavage rate” value amounted to 0.000234 ± 0.032. Under UAGUCUGUCACCUUCUCUGAGAGAUUUAACA stands 0.245 ± 0.023; under UAGUGAGUCAGCUUCUCUGAGAGAUUUACA, 0.1 ± 0.018. As for UAGUGACAGUGCUUCUCUGAGAAUUAACA, the figure is 0.000384 ± 0.012; as for UAGUCUGUCACGAUCUCUGAGAGAUUUUGA, 0.00168 ± 0.0056. Under UAGUGACACACCUUCUCUGAGAGAUCAACA stands 0.0804 ± 0.024; under UAGUGACAGUGGAUCCCUGAGAGAUUAACA, 0.000326 ± 0.01; under UAGUGUGUCACCUUCUCUGAGAGAUUAAUCA, 0.18 ± 0.032. UAGUGACAGUCCUUCUGUGAGAGAUUAUGA: the “pre-steady-state target cleavage rate” value is 0.000943 ± 0.0061.

On to UAGUGUGUCACCUUCUCACUGAGAUUUUGA, for which the “pre-steady-state target cleavage rate” value was determined as 0.000601 ± 0.015. As for UAGUGACUCACCUUCUCUGAGACAUUAAGA, the figure is 0.00109 ± 0.0058. Under UAGUGAGUCACCUUCUCUGAAGAGAUUAACA stands 0.0119 ± 0.0044.

For the sequence UAGUGACAGUGGUUCUCUGAGAGUUUAACA, the “pre-steady-state target cleavage rate” value came out at 0.00043 ± 0.014.

For the sequence UAGUGACAGUGGAACUCUGAGAGAUUAAACA, the “pre-steady-state target cleavage rate” value was 0.000127 ± 0.049.

As for UAGUGACAGUGCAUCUCUGAGAGAUUAUCA, the “pre-steady-state target cleavage rate” value was 0.00119 ± 0.0054. Under UAGUGACUCACCUUGAGUGAGAGAUUAAGA stands 0.000395 ± 0.018; under UAGUCUGUCACCUUCUCUCAGAGAUUAACA, 0.064 ± 0.0081; under UAGUGACAGUGGAAGACUGAGAGGUUAACA, 0.000115 ± 0.023.

For the sequence UAGUGACAGUCCUUCUCUCAGACAUUAACA, the “pre-steady-state target cleavage rate” value was determined as 0.00333 ± 0.0035. Under UAGUGACACAGGUUCUCUGAGAGAUUUUGA stands 0.000328 ± 0.022.

With UAGUGACAGUGGAAGAGACAGAGAUUAAUA, the “pre-steady-state target cleavage rate” value was 0.000263 ± 0.034. Take UAGUGACAGUCCUUCUCAGAGAGAUUAUCA: the “pre-steady-state target cleavage rate” value was determined as 0.00412 ± 0.0043. Under UAGUGAGUCACCCUUCUCUGAGAGAUUAACA stands 0.19 ± 0.02; under UAGUGACUCACCUUCUCUCUGAGAUUAUGA, 0.000951 ± 0.0087; under UAGUGACAGACCUAGACUGAGAGAUUAACA, 0.00231 ± 0.0046. Under UAGUGACAGUGCUUCUCUGUCUGAUUAACA stands 0.000469 ± 0.0096; under UAGUGACUCACCUUCUCUGACUGAUUAACA, 0.00124 ± 0.0074; under UAGUGACUCACCUUCUCUGAGUGAUUAUGA, 0.000446 ± 0.013.

Take UAGUGACAGUGGAAGACUGAGAUGAUUAACA: the “pre-steady-state target cleavage rate” value turned out to be 0.000159 ± 0.018. As for UAGUGUGUCACCUUCUCUGUCUGAUUAACA, the figure is 0.00149 ± 0.0073; as for UAGUGACAGUCCUUCACUGAGAGAUUAUCA, 0.00293 ± 0.004. As for UAGUGUGUCACCUUCUCUGUCAGAUUUUGA, the “pre-steady-state target cleavage rate” value turned out to be 0.000294 ± 0.039. Under UAGUGACAGUGGAUGUCUGAGAGAUUUACA stands 0.000223 ± 0.024.

For the sequence UAGUGACAGAGGUUCUCUGAGAGAUUAAGA, the “pre-steady-state target cleavage rate” value was 0.0016 ± 0.005. On to UAGUGACAGACCAAGUCUGAGAGAUUAUGA, for which the “pre-steady-state target cleavage rate” value was determined as 0.00045 ± 0.022. As for UAGUGACUCACCUUCUCUGAGUGAUUAUCA, the figure is 0.000644 ± 0.015; as for UAGUGACAGACCUUCUCUGAGACAUUAAGA, 0.00054 ± 0.019. As for UAGUGACUCACCUUCUCUGAGAGAGUUAACA, the figure is 0.118 ± 0.017. As for UAGUGACAGUGCUUCUCUGAGAGAUAUUCA, the figure is 0.000354 ± 0.013. For the sequence UAGUGACACACCUUCUCUGAGACUUUAACA, the “pre-steady-state target cleavage rate” value was found to be 0.00232 ± 0.004. As for UAGUGACUCACCUUCUCACUGAGAUUAAGA, the figure is 0.00278 ± 0.0042. With UAGUCUGUCACCUUCUCUGAGAGAUCAACA, the “pre-steady-state target cleavage rate” value worked out at 0.114 ± 0.018. Under UAGUGAGUCACCUUGACUGAGAGAUUAAGA stands 0.00128 ± 0.0089. In the case of UAGUGACAGUGGAAGACUGAGAGAUUAACCA, the “pre-steady-state target cleavage rate” value worked out at 0.000127 ± 0.031. Take UAGUCUGUGACCUUCUCUGAGAGAUUUUGA: the “pre-steady-state target cleavage rate” value is 0.00188 ± 0.0037. As for UAGUGUGACACCUUCUCUGAGUGAUUAACA, the figure is 0.00251 ± 0.0052.
